# Experimental data as given in the supplement of paper PMC8256030.
# “And” between values parts separate entries of the source, which are not always exact repeats. Identical values can stand only once. The list shows a part of the results. This data set is noisy: repeats of one test often differ as much as different tests do.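 HEK293T cells were given each compound shortly before transfection with a reporter in which red mCherry is followed by the SARS-CoV-2 frameshift element and then GFP in the −1 frame, so GFP appears only after frameshifting.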
# System: HEK293T
# Experiment: percent viability (nuclei count) relative to control; higher = more viable cells
# Settings: 10 µM; 24 h
row,SMILES,percent viability
1,CCCCCCCCCCOc1cc2c(=O)c(C(=O)OCC)c[nH]c2cc1OCC,72.3%
2,C=C[C@]1(C)C[C@@H](OC(=O)CS[C@@H]2C[C@H]3CC[C@@H](C2)N3C)[C@]2(C)[C@H](C)CC[C@]3(CCC(=O)[C@H]32)[C@@H](C)[C@@H]1O [retapamulin],329%
3,CCN1CCN(C(=O)N[C@@H](C(=O)N[C@@H]2C(=O)N3[C@@H]2SC(C)(C)[C@@H]3C(=O)O)c2ccccc2)C(=O)C1=O,99.5%
4,CN1C(C(=O)Nc2ccccn2)=C(O)c2sc(Cl)cc2S1(=O)=O,159%
5,CC(=O)[C@H]1CC[C@H]2[C@@H]3C=CC4=CC(=O)CC[C@@]4(C)[C@@H]3CC[C@]12C [dydrogesterone],135%
6,N=C(N)N/N=C/c1c(Cl)cccc1Cl [guanabenz],159%
7,COc1ccccc1N1CCN(CC(O)COc2cc(OC)c(OC)c(OC)c2)CC1 (stereo not given) [enciprazine],79.4%
8,Cn1cc([S+](C)[O-])c(=O)c2ccc(F)cc21 (stereo not given) [flosequinan],174%
9,CCNC(=O)[C@@H]1CCCN1C(=O)[C@H](CCCNC(=N)N)NC(=O)[C@H](CC(C)C)NC(=O)[C@@H](COC(C)(C)C)NC(=O)[C@H](Cc1ccc(O)cc1)NC(=O)[C@H](CO)NC(=O)[C@H](Cc1c[nH]c2ccccc12)NC(=O)[C@H](Cc1cnc[nH]1)NC(=O)[C@@H]1CCC(=O)N1 [buserelin],142%
10,Clc1ccc(C(Cn2ccnc2)OCc2csc3c(Cl)cccc23)c(Cl)c1 (stereo not given) [sertaconazole],328%
11,O=S(=O)([O-])NC1CCCCC1.[Na+] [sodium cyclamate],158%
12,CC1CC(OC(=O)c2ccccc2O)CC(C)(C)C1 (stereo not given) [homosalate],344%
13,c1ccc2[nH]c(-c3cscn3)nc2c1 [tiabendazole],166%
14,CCCCC[C@H](O)/C=C/[C@H]1[C@H](O)CC(=O)[C@@H]1CCCCCCC(=O)O [alprostadil],207%
15,Oc1ccccc1-c1nnco1 [fenadiazole],93.4%
16,CC(C)(C(=O)O)c1ccc(C(=O)CCCN2CCC(OC(c3ccccc3)c3ccccc3)CC2)cc1 [carebastine],240%
17,COc1ccc(/C=C/C(=O)Nc2ccccc2C(=O)O)cc1OC [Tranilast],165%
18,CC(=O)Nc1c(I)cc(I)c(C(=O)O)c1I [sodium acetrizoate],108%
19,Cc1cc(Cl)c(S(N)(=O)=O)cc1S(N)(=O)=O [disulfamide],124%
20,NS(=O)(=O)c1cc(C(=O)NN2C[C@@H]3[C@H]4CC[C@H](C4)[C@@H]3C2)ccc1Cl [tripamide],228%

row,SMILES,percent viability
1,CC1(c2ccccc2)OC(C(=O)O)=CC1=O (stereo not given) [acifran],117%
2,CCC1(c2ccccc2)C(=O)NCNC1=O [primidone],180%
3,Cc1c(CC(=O)O)sc2ccc(Cl)cc12 [tianafac],165%
4,NC[C@H]1O[C@H](O[C@H]2[C@H](O)[C@@H](O[C@H]3O[C@H](CO)[C@@H](O)[C@H](N)[C@H]3O)[C@H](N)C[C@@H]2N)[C@H](O)[C@@H](O)[C@@H]1O [Kantrex],40.9%
5,CC(C)(C)NCC(O)COc1ccc(NC(=O)NC2CCCCC2)cc1 (stereo not given) [talinolol],95.9%
6,O=c1[nH]c2ccccc2n1CCN1CCN(c2cccc(C(F)(F)F)c2)CC1 [flibanserin],73.4%
7,OC[C@H]1O[C@@H](n2cnc3c2N=CNC[C@H]3O)C[C@@H]1O [pentostatin],107%
8,O=C(O)c1cc(=O)[nH]c(=O)[nH]1 [orotic acid],369%
9,Cc1cc2c(cc1S(N)(=O)=O)S(=O)(=O)CCC2 [meticrane],100%
10,C#CC(C)(CC)OC(=O)c1ccccc1C(=O)O (stereo not given) [ftalofyne],103%
11,N#C[C@@H]1CCCN1C(=O)CNC12CC3CC(CC(O)(C3)C1)C2 [vildagliptin],145%
12,NC(=O)c1csc([C@@H]2O[C@H](CO)[C@@H](O)[C@H]2O)n1 [tiazofurine],317%
13,NCc1c[nH]c(=S)n1[C@H]1CCc2c(F)cc(F)cc2C1 [nepicastat],326%
14,N[C@@H](Cc1cc(I)c(Oc2ccc(O)c(I)c2)c(I)c1)C(=O)O,329%
15,CC[C@H]1OC(=O)[C@H](C)[C@@H](O[C@H]2C[C@@](C)(OC)[C@@H](O)[C@H](C)O2)[C@H](C)[C@@H](O[C@@H]2O[C@H](C)C[C@H](N(C)C)[C@H]2O)[C@](C)(O)C[C@@H](C)CN(C)[C@H](C)[C@@H](O)[C@]1(C)O [Azithromycin],195%
16,O=C1CCC(N2C(=O)c3ccccc3C2=O)C(=O)N1 (stereo not given) [thalidomide],321% and 173%
17,Cc1[nH]cnc1CN1CCc2c(c3ccccc3n2C)C1=O [alosetron],29.6%
18,CCCN(CC)C(CC)C(=O)Nc1c(C)cccc1C (stereo not given) [etidocaine],92.3%
19,CC[N+](CC)(CC)CCOC(=O)c1cc(OC)c(OC)c(OC)c1 [troxonium tosilate],92.1%
20,Cc1cc(NS(=O)(=O)c2ccc(N)cc2)no1 [sulfamethoxazole],160%
